Measurements as given in US9121859B2, “Compounds and methods for determination of FKBP-binding immunosuppressant drugs” (Siemens Healthcare Diagnostics Inc., priority 2012, dated 2015).
At least one compound was matched to its structure with a doubt left.

Assays:
[1] = system: endogenous specific binding proteins (FKBP) in whole blood; experiment: ACMIA assay for tacrolimus: release of tacrolimus from endogenous binding substances in spiked whole blood by releasing agent; settings: for Drug concentration measured / Percent (%) displaced vs. SIRO: releasing agent 10 μg/mL
Procedure: Testing was carried out using the DIMENSION® RxL analyzer, available from Siemens Healthcare Diagnostics Inc., Newark Del. The instrument was employed using ACMIA immunoassay technology. The ACMIA assay method is described in U.S. Pat. Nos. 7,842,475, 7,186,518, 5,147,529, 5,128,103, 5,158,871, 4,661,408, 5,151,348, 5,302,532, 5,422,284, 5,447,870, and 5,434,051, the disclosures of which are incorporated herein in their entirety. In the embodiment of the ACMIA method used herein and discussed in more detail below, competition between tacrolimus analog on chrome particles and tacrolimus in patient samples for antibody for tacrolimus conjugated to an enzyme (the “conjugate”) is utilized to determine the amount of tacrolimus in patient samples. Conjugate that binds to the tacrolimus analog on chrome particles is removed by magnetic separation. The enzymatic activity from the conjugate remaining in the supernatant is measured and is directly proportional to the amount of tacrolimus in the patient sample. […] The enzymatic activity observed when no chrome particle is present is indicative of the total amount of enzymatic activity in the conjugate.
Preparation of pretreatment reagent solution. This pretreatment solution was prepared to contain an amount of releasing agent, 6.8 mg/mL PIPES 1.5 sodium salt (buffer), 0.3 mg/mL EDTA disodium (clot prevention agent), 1.0 mg/mL saponin (hemolytic agent), 0.2% PROCLIN® 300 (preservative), 0.024 mg/mL neomycin sulfate (preservative) and 0.99 mg/mL NaN3, pH 6.5. The amount of releasing agent in each of the pretreatment reagent solutions was 10 μg/mL. The releasing agent concentration in the final reaction mixture was equivalent to 46.7 μg/mL of the analog added from the sample.
(§1) Preparation of anti-tacrolimus antibody-β-galactosidase conjugate. Monoclonal anti-tacrolimus antibody (clone 1H6, see for example U.S. Pat. No. 7,078,495) is conjugated to β-galactosidase using a standard heterobifunctional SMCC (succinimidyl trans-4-(N-maleimidylmethyl)cyclohexane-1-carboxylate) linker according to known techniques. The antibody conjugate solution contains approximately 7.5 μg/mL anti-tacrolimus antibody-β-galactosidase conjugate, 30 mg/mL protease free bovine serum albumin, 0.126 mg/mL MgCl2, 0.03 mL/mL of ethylene glycol, 35.14 mg/mL PIPES 1.5 sodium salt, 50 mg/mL NaCl and beta-gal mutein (inactivated β-galactosidase), pH 6.5.
The chrome particle reagent contained approximately 2.5 mg/mL tacrolimus chrome particle slurry, 60.8 mg/mL trehalose dihydrate and 7.2 mg/mL CARBOWAX®.
Preparation of samples. Aliquots of a whole blood pool are spiked with an amount of sirolimus so that the resulting concentration of sirolimus in the whole blood samples in the calibrators is as set forth in Table 1 (0.0, 5.1, 10.1, 20.6 and 31.6 ng/mL). Aliquots of a whole blood pool are spiked with an amount of tacrolimus so that the resulting concentration of […] (0.0, 2.6, 5.3, 11.6 and 30.1 ng/mL).
Pretreatment of samples. A set of samples was treated as follows: To each sample was added an amount of the pretreatment reagent solution from above for displacing sirolimus in the sample from endogenous specific binding proteins. The samples were incubated at 37° C. for a period of 140 minutes. Subsequently, each sample was subjected to the aforementioned assay, which is further described below; and signal (mAU) was measured and related to a concentration of analyte that represents the amount of free analyte (analyte that is not bound by endogeneous binding substances plus analyte that was displaced from endogeneous binding substances) in the samples.
The above format for releasing an analyte (using the concentration of releasing agent (Displacer) shown) and conducting an assay for the analyte was repeated for samples containing tacrolimus.

[2] = system: monoclonal anti-tacrolimus antibody (clone 1H6); experiment: Calculated cross-reactivity of releasing agent with antibody of the tacrolimus ACMIA assay; assay type: binding; settings: measured at calibrator of 0 ng/mL
Procedure: as §1
Anti-sirolimus antibody-β-galactosidase conjugate (50 μL) was added next to each of the reaction vessels and the mixture was held for a period of time (10 to 15 minutes) and at a temperature of 43° C. to allow sirolimus, if present, to react with the antibody reagent. […] The sirolimus-bound conjugate was detected by transferring the supernatant from each of the reaction vessels to a photometric cuvette and measuring the enzymatic rate of the conjugate in the presence of chlorophenol red-β-D-galactopyranoside (CPRG). The rate for each reaction vessel was measured bichromatically at 577 and 700 nm. […]

[3] = tacrolimus calibrator 2.6 ng/mL
[4] = tacrolimus calibrator 5.3 ng/mL
[5] = tacrolimus calibrator 11.6 ng/mL
[6] = tacrolimus calibrator 30.1 ng/mL

Question: How did the “Displacement efficiency compared with mixture of V and VI” value ([1]; tacrolimus assay, result in words) turn out when `CO[C@H]1C[C@@H]2CC[C@@H](C)[C@@](O)(O2)C(=O)C(=O)N2CCCC[C@H]2C(=O)O[C@H]([C@H](C)C[C@@H]2CC[C@@H](O)[C@H](OC)C2)CC(=O)[C@H](C)/C=C(\C)[C@@H](O)[C@@H](OC)C(=O)[C@H](C)C[C@H](C)/C=C/C=C/C=C/1C` [SIRO, sirolimus] was run?
Answer: lower displacement efficiency

Question: And the “Drug concentration measured” value ([1]; tacrolimus calibrator 0.0 ng/mL)?
Answer: 0.0 ng/mL

Question: And the “Drug concentration measured” value [1, 3]?
Answer: 2.6 ng/mL

Question: What about the “Percent (%) displaced vs. SIRO” value [1, 3] of the same compound?
Answer: 100%

Question: And the “Drug concentration measured” value [1, 4]?
Answer: 5.3 ng/mL

Question: What about the “Percent (%) displaced vs. SIRO” value [1, 4] of the same compound?
Answer: 100%

Question: And the “Drug concentration measured” value [1, 5]?
Answer: 11.6 ng/mL

Question: What about the “Percent (%) displaced vs. SIRO” value [1, 5] of the same compound?
Answer: 100%

Question: What about the “Drug concentration measured” value [1, 6] of the same compound?
Answer: 30.1 ng/mL

Question: What about the “Percent (%) displaced vs. SIRO” value [1, 6] of the same compound?
Answer: 100%

Question: And the “Calculated antibody cross-reactivity (percent (%) times 100)” value [2]?
Answer: 0.00 % × 100
